This experiment has as its target ATP1A3 (sodium pump α3 subunit), endogenous in U87-MG cells (human (endogenous in U87-MG)) (UniProt P13637). Briefly: co-IP; U87-MG cell lysates (400 μg total protein), precleared with protein A/G-agarose and normal rabbit IgG; anti-ATP1A3 antibody 5-6 h at 4°C; Western blot with rabbit anti-SNRPG and mouse anti-ATP1A3.

No constants are given. Whether binding was seen depends on the method and setting. Binding seen in cells or lysates may run through a third protein. Some results given as binding are weak or reduced against the parent protein; the word gives no strength.

On to “small nuclear ribonucleoprotein polypeptide G (SNRPG), endogenous in U87-MG cells (from UniProt P62308 1-76)”, for which the binding result is reported as “binds”.

(Values after paper PMC13536730.)
